Assay results published in US20060003989A1, “Compositions and methods using acetylcholinesterase (ACE) inhibitors to treat central nervous system (CNS) disorders in mammals” (priority 2002, published 2006).

What was measured:
[1] = rat, single intranasal dose, at 30 min
nasal mucosa = conditions: rat

COc1cc2c(cc1OC)C(=O)C(CC1CCN(Cc3ccccc3)CC1)C2 (stereo not drawn) [donepezil]
peak CSF concentration [1]: 28.4 nanogram/mL
signs of nasal irritation, pain or distress (nasal mucosa; intranasal 50 μL/kg of donepezil 50 mg/mL in α-cyclodextrin 12%, observed after dosing): No signs were noted of nasal irritation
otoscopic examination of the nasal cavity vs saline (nasal mucosa; intranasal donepezil 50 mg/mL in α-cyclodextrin 12%, 4 hours after dosing): did not reveal any difference
